# PubChem BioAssay AID1259254 | NCATS, 2017
# Assay: 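Finding genes that stop cells copying their DNA twice in one cycle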 (primary screen)
# Cell system: human HCT116 colorectal cancer cells
# Reagents: single siRNA against human genes
# Duration: 3 days
# Measured: 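Nuclei stained with Hoechst and imaged; cell-cycle phase assigned by DNA content; G2 share scaled per plate, non-targeting siRNA 0%, GMNN siRNA 100%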
# Direction: G2 robust z-score and G2 cells, % of GMNN control: higher = more G2 cells, more excess DNA replication; raw share of cells in G2: higher = larger share of cells with G2 DNA content
# Call rule: 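An siRNA counts as active if its G2 robust z-score lies at least 5 MADs above the screen median; here such calls match roughly 38% of GMNN control or more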
# This is an unselected part of about 59,000 reagents. About 1,550 of all reagents (2.6%) were called active. 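G2 share is only a proxy for re-replication; each gene was hit by three separate siRNAs, and active genes were retested.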 Raw values are not corrected between plates. A number with no mark means an inactive call. The numbers tell different reagents against one gene apart. Not stated in the record: the amount of reagent.
Target gene,reagent no.,G2 robust z-score,"G2 cells, % of GMNN control",raw share of cells in G2 (%)
TRIB3,1,-1.14,-5.07,2.06
TRIB3,2,-0.935,-3.61,4.47
TRIB3,3,2.92,23.5,13.8
SOX3,1,0.824,8.77,8.63
SOX3,2,0.674,7.71,7.19
SOX3,3,1.18,11.3,7.7
OR52N1,1,2.56,21,13.7
OR52N1,2,0.909,9.36,8.8
OR52N1,3,-0.37,0.365,2.79
FOXO3,1,-0.608,-1.31,4.76
FOXO3,2,-0.957,-3.76,3.83
FOXO3,3,-0.525,-0.726,3.4
CTR9,1,-0.557,-0.95,4.9
CTR9,2,-0.441,-0.134,3.89
CTR9,3,-0.877,-3.21,2.24
C3AR1,1,3.89,30.3,16.7
C3AR1,2,0.204,4.4,6.06
C3AR1,3,0.817,8.71,5.94
UBASH3B,1,-0.359,0.439,4.27
UBASH3B,2,0.215,4.48,4.4
UBASH3B,3,-0.448,-0.185,2.87
ZNF790,1,1.41,12.9,7.53
ZNF790,2,1.31,12.2,7.4
ZNF790,3,-0.45,-0.201,3.45
PEF1,1,-0.851,-3.02,2.05
PEF1,2,-0.358,0.451,3.32
PEF1,3,2.17,18.2,9.91
UBE2H,1,1.86,16.1,12.4
UBE2H,2,-1.01,-4.16,3.11
UBE2H,3,-1.23,-5.66,2.15

Continued (6 carried over from the part before).
Target gene,reagent no.,G2 robust z-score,"G2 cells, % of GMNN control",raw share of cells in G2 (%)
PEF1,1,-0.851,-3.02,2.05
PEF1,2,-0.358,0.451,3.32
PEF1,3,2.17,18.2,9.91
UBE2H,1,1.86,16.1,12.4
UBE2H,2,-1.01,-4.16,3.11
UBE2H,3,-1.23,-5.66,2.15
ISCA1P1,1,-0.0594,2.55,4.65
ISCA1P1,2,0.0781,3.52,4.93
ISCA1P1,3,-0.603,-1.27,4.09
KLK12,1,-0.674,-1.78,3.25
KLK12,2,-0.159,1.85,6.2
KLK12,3,4.72,36.1,17.7
SERHL,1,-0.136,2.01,4.9
SERHL,2,1.5,13.5,7.36
SERHL,3,-0.587,-1.16,1.48
DDX27,1,2.04,17.3,14
DDX27,2,0.831,8.82,7.6
DDX27,3,4.74,36.3,19.5
PINLYP,1,-0.028,2.77,5.94
PINLYP,2,-0.84,-2.95,2.74
PINLYP,3,-0.0098,2.9,4.67
CACNA1S,1,1.04,10.3,9.04
CACNA1S,2,-0.251,1.2,5.19
CACNA1S,3,1.19,11.3,8.8
SENP6,1,-0.36,0.438,4.33
SENP6,2,-0.00717,2.92,4.94
SENP6,3,-0.268,1.08,6.65
BOC,1,1.75,15.3,12.8
BOC,2,-0.451,-0.209,4.88
BOC,3,-0.324,0.691,4.74
VWA5A,1,2.6,21.2,13.6
VWA5A,2,0.215,4.48,4.67
VWA5A,3,0.539,6.76,8.15
PIGT,1,3.26,25.9,12.9
PIGT,2,1.21,11.5,9.1
PIGT,3,-0.00368,2.94,4.16
PFDN1,1,1.41,12.9,8.58
PFDN1,2,-0.984,-3.96,2.99
PFDN1,3,-0.0417,2.67,4.08
MSL2,1,1.24,11.7,9.02
MSL2,2,3.04,24.3,14.2
MSL2,3,0.607,7.24,5.45
RANGRF,1,-0.548,-0.886,4.21
RANGRF,2,0.0773,3.51,4.36
RANGRF,3,-0.582,-1.13,3.42
